# Test results published in PubChem BioAssay AID2685 (National Center for Advancing Translational Sciences (NCATS), 2010).
# The whole screen tested about 320,000 compounds, of which about 2,100 (0.66%) were called active. This list was built around the results that the source calls inconclusive (neither active nor inactive); the mix of calls is not that of the screen. Calls come from the whole dose curve; as a rule, active = well fitted inhibition curve with a large enough effect in the signal ratio, with a control signal flat (not every such curve was filed as active); inconclusive = small, poorly fitted or top-dose-only effect, or effect the other way, or a change in a side signal; inactive = flat fitted curve, though single readings scatter; the % refers to the signal ratio. Where the call is inconclusive, the potency comes from a doubtful curve fit.
# Assay: qHTS Assay for Lipid Storage Modulators in Drosophila S3 Cells
# Conditions: BODIPY lipid droplet fluorescence, 18-24 h, cells fed with added oleic acid; lipid storage change, negative = inhibition: at 46.1 µM (top of the series) unless noted
# Summary of the method: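 Laser-scanning cytometry quantifies lipid droplet accumulation (500–530 nm total intensity; droplet/cell object ratio) in oleic acid-fed (400 uM added) Drosophila S3 cells treated with a concentration series. 20 uM Triacsin C defined 100% inhibition.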
# % is set by controls: 0 for no effect and ±100 for the full control effect; potency is the fitted concentration of half-maximal effect.
Compound,"lipid storage change, negative = inhibition",Potency,outcome
CCN(CC)c1ccc(/C=C/C(=O)C2C(=O)C=C(C)OC2=O)cc1 (stereo unspecified),inconclusive: -7.34%,,
CN(C)c1ccc(/C=N/N2C(=O)c3ccccc3C2=O)cc1,inconclusive: 22.1%,,
O=C(NNc1nc(Nc2ccccc2)nc(N2CCOCC2)n1)Nc1ccc(Cl)cc1,inconclusive: -55.8%,,
COc1ccc(OCc2cc(C(=O)NCCN3CCCc4ccccc43)no2)c(Cl)c1,,"inconclusive: 29.1 µM [falling, single point]",
OCC1(Cc2cccc(C(F)(F)F)c2)CCN(Cc2cc(F)cc(F)c2)CC1,inconclusive: -13.5%,,
COCCCn1c(C(=O)Nc2ccc3c(c2)OCO3)cc2c(=O)n3ccccc3nc21,,"inconclusive: 6.51 µM [falling, single point]",
COc1ccc(/C=C/C(=O)c2sc(-c3ccccc3)nc2C)cc1,,"inconclusive: 23.1 µM [activator, single point]",
O=C(COc1cccc2c1CCN(Cc1ccc(Br)cc1)C2=O)NCc1ccco1,,"inconclusive: 14.6 µM [falling, single point]",
CCOc1cc(N2CCOCC2)c(OCC)cc1NC(=O)c1ccc(NC(C)=O)cc1,inconclusive: -10.1%,,
Cc1ccc(-c2nn(-c3ccccc3Cl)cc2C(=O)NCC2CCCO2)cc1 (stereo unspecified),inconclusive: 28.2%,,
C(=N\Nc1ccc(-n2ccnc2)nn1)/c1ccccc1,,,inactive [at 46.1 µM]
COC(=O)c1ccc(N2C(=O)C3C4C=CC(CC4)C3C2=O)cc1 (stereo unspecified),,"inconclusive: 0.092 µM [activator, full curve, poor fit]",
COc1ccc(NC(=O)COC(=O)c2n[nH]c3ccccc23)c(OC)c1,,"inconclusive: 6.51 µM [activator, partial curve, poor fit]",
CCOCCCNS(=O)(=O)c1ccc(NC(=O)C2CC(=O)N(c3ccc(C)cc3)C2)cc1 (stereo unspecified),inconclusive: -39.1% [at 0.369 µM],,
Cn1c(CCC(=O)Nc2ccc(N3CCOCC3)cc2)nc(=O)c2ccccc21,inconclusive: 14.4%,,
O=C(CSc1ccc(C(F)(F)F)cc1[N+](=O)[O-])Nc1ccc2ccccc2c1,,"inconclusive: 29.1 µM [rising, single point]",
CSCCC(NS(=O)(=O)c1ccccc1F)C(=O)N1CCCCCCC1 (stereo unspecified),,"inconclusive: 11.6 µM [activator, partial curve, poor fit]",
COc1ccc(CCNC(=O)c2ccc3c(c2)OCCO3)cc1,inconclusive: 50.2%,,
CCCCC(CC)c1nnc(NC(=O)c2cccs2)s1 (stereo unspecified),inconclusive: -15.4%,,
CCOc1ccccc1OCC(=O)NCCc1ccc(S(N)(=O)=O)cc1,inconclusive: -10.3%,,
COc1ccc(CN(C)C2CCCCC2)c(C)c1C,inconclusive: -1.82%,,
CCOc1ccc(NC(=O)[C@@H](NC(=O)c2ccccc2Br)C(C)C)cc1,,"inconclusive: 29.1 µM [activator, partial curve]",
COc1ccc(CC(=O)NCc2nnc(SCC(=O)Nc3ccccc3)n2C)cc1,inconclusive: -9.99%,,
COc1ccc(C(O)c2nc3ccccc3n2C(C)C)cc1 (stereo unspecified),,"inconclusive: 10.3 µM [activator, partial curve, poor fit]",
Cc1cc(C)cc(C(=O)Nc2nc3ccccc3[nH]2)c1,,"inconclusive: 6.51 µM [activator, single point]",
CC(=O)Nc1ccc(C(=O)NCC(=O)OCc2c(F)cccc2Cl)cc1,inconclusive: 43.4%,,

Compound,"lipid storage change, negative = inhibition",Potency,outcome
C[C@@H](CC#N)CN1CC[C@H](C(C)(C)C)CCC1=O,,"inconclusive: 16.4 µM [activator, partial curve, poor fit]",
Cc1ccc(Nc2oc(C)nc2C#N)cc1,inconclusive: 14.3%,,
O=C(C1=C[C@@H](c2coc3ccccc3c2=O)C[C@@H](OCCCCO)O1)N1CCN(Cc2ccc3c(c2)OCO3)CC1,inactive: -7.19%,,
COc1ccc(N(CC(=O)N2CCN(c3ccc(F)cc3)CC2)S(=O)(=O)c2c(C)noc2C)cc1,inconclusive: 103%,,
CN1\C(=C/C=C/C=C/C=[N+](C)C)C(C)(C)c2ccccc21,,"inconclusive: 29.1 µM [falling, partial curve, poor fit]",
Cc1ccc(-n2cc(-c3ccc([N+](=O)[O-])cc3)[nH]c2=S)c(C)c1,inconclusive: -62.2%,,
CC(=O)SC(C[N+](=O)[O-])c1cn(C(C)=O)c2ccccc12 (stereo unspecified),inconclusive: -58.9%,,
COc1ccccc1NC(=O)CSc1nnc2ccccn12,inconclusive: 8.99%,,
O=C(Nc1nc2ccc(SC(F)F)cc2s1)c1ccc(NS(=O)(=O)c2ccc(F)c(F)c2)cc1,,"inconclusive: 14.6 µM [falling, single point]",
CC(C)C[C@@H](CO)N1CCN(Cc2ccc(Br)cc2)CCC1=O,inconclusive: -21.6%,,
COc1cc(C(=O)N=C2SC3CS(=O)(=O)CC3N2c2ccccc2)cc(OC)c1OC (stereo unspecified),,"inconclusive: 0.0517 µM [activator, full curve, poor fit]",
CCCCC(=O)Nc1cc(N(C)C)nc2ccccc12,inconclusive: 29.9%,,
CCCn1c(N)c(N2CCCCC2)c(=O)n(CC(=O)Nc2ccccc2C)c1=O,inconclusive: 2.66%,,
O=C1CCCN1CCCNS(=O)(=O)c1ccc(Br)s1,inconclusive: -50.5%,,
O=S(=O)(NC1CCCCC1NS(=O)(=O)c1ccc(F)cc1)c1ccc(F)cc1 (stereo unspecified),inconclusive: -52.8%,,
CN(C)C(CNC(=O)c1cc(Br)ccc1Cl)c1ccco1 (stereo unspecified),inconclusive: -31.7%,,
CCN(CC)S(=O)(=O)c1cc(C(=O)Nc2ccccc2[N+](=O)[O-])ccc1Cl,inconclusive: 21.8%,,
CCc1c(C)nc(N2CCN(c3ccc(F)cc3)CC2)[nH]c1=O,,"inconclusive: 4.61 µM [falling, single point]",
COCC(COS(N)(=O)=O)Cc1ccccc1 (stereo unspecified),,"inconclusive: 14.6 µM [activator, partial curve]",
Cc1cccc(C(=O)OC(C)C(=O)NC2CCCc3ccccc32)c1O (stereo unspecified),inconclusive: 22.3%,,
Cc1nonc1OCCNC(=O)C12CC3CC(CC(C3)C1)C2,,"inconclusive: 16.4 µM [falling, partial curve, poor fit]",
O=C(NC1CCCCCC1)c1cc2c(=O)n3ccccc3nc2s1,inconclusive: -100%,,
Cc1cccc(-c2nsc(SCC(=O)Nc3cc(C)on3)n2)c1,inconclusive: 9.03%,,
Cn1c(=O)c(C(=O)c2ccccc2)nc2ccccc21,,"inconclusive: 23.1 µM [falling, single point]",
CCCCNc1cc(C)nc(N2CCOCC2)n1,,"inconclusive: 11.6 µM [rising, partial curve]",
COc1cccc(C(C(=O)NC2CCCCC2)N(C(=O)c2csnn2)C2CC2)c1 (stereo unspecified),inconclusive: -100%,,

Compound,"lipid storage change, negative = inhibition",Potency,outcome
CC(C)(C)NC(=O)Nc1ccc(Cn2cc(C(F)(F)F)ccc2=O)cc1,inconclusive: 23.6%,,
Cc1cc(C)n2nc(CNS(=O)(=O)c3ccc(C)c(C)c3)nc2n1,,"inconclusive: 29.1 µM [activator, partial curve, poor fit]",
Cc1noc(C)c1CSCC(=O)Nc1nc2ccc(S(C)(=O)=O)cc2s1,inconclusive,,
FC(F)(F)c1cc(-c2ccco2)nc(NCc2cccs2)n1,inconclusive: -15.5%,,
CCOc1ccc(C2NC(=O)Cc3cc(OC)c(OC)cc32)cc1 (stereo unspecified),inconclusive: -81.9%,,
O=C(COC(=O)C1CC2CCCC(C1)C2=O)NNC(=O)c1ccc([N+](=O)[O-])cc1 (stereo unspecified),inconclusive: 52.8%,,
CCOC(=O)CSc1nnc(CSc2nc(N)c3c(C)c(C)sc3n2)n1-c1ccccc1,inconclusive: 12.8%,,
CN(Cc1ccccc1)C(=O)c1ccccc1NC(=O)C1CC1,inconclusive: -38.9% [at 0.00295 µM],,
CC(CCc1ccccc1)NC(=O)Cc1ccc([N+](=O)[O-])cc1 (stereo unspecified),inconclusive: 16.5%,,
COC(=O)c1ccc(CS(=O)(=O)c2ccc(F)cc2)o1,inconclusive: 9.97%,,
O=C(O)c1ccc(NC2=C(n3nnc4ccccc43)C(=O)c3ccccc3C2=O)cc1,inconclusive: -23.6%,,
Oc1ccc(Cl)cc1CNCC1CCCO1 (stereo unspecified),,"inconclusive: 0.0259 µM [falling, full curve, poor fit]",
COc1ccccc1N1CCN(C(=O)CSc2nnc(-c3ccoc3C)o2)CC1,inconclusive: 30.1%,,
CC1Cc2ccccc2N1c1ncnc2c1nnn2Cc1ccccc1Cl (stereo unspecified),inconclusive: 11.4%,,
N#CC1(NC(=O)COc2ccc(S(=O)(=O)N3CCCC3)cc2[N+](=O)[O-])CCCCC1,inactive: 0.304%,,
CCOC(=O)c1sc(C)c2c1NC(c1ccc(Cl)cc1)NC2=O (stereo unspecified),inconclusive: -22.2%,,
Cc1cc(N2CCN(C(=O)Nc3ccccc3C#N)CC2)c2ccccc2n1,inconclusive: 47.4%,,
CCc1cccc2c1NC(=O)C2(O)N1CCCC(C)C1 (stereo unspecified),inconclusive: 8.61%,,
CCOC(=O)c1ccc(NC(=S)NC2CCCC2)cc1,inconclusive: 49.6%,,
CC1(C)CC(=O)C=C(NCCc2ccccc2)C1,inactive: 22.1%,,
COc1cc(OC)cc(C(=O)Nc2ccc([N+](=O)[O-])cn2)c1,,"inconclusive: 0.092 µM [activator, partial curve, poor fit]",
CC(C)(C)c1ccc(S(=O)(=O)N2CCN(CC(=O)N3CC(=O)Nc4ccccc43)CC2)cc1,,"inconclusive: 0.731 µM [falling, single point]",
CCOC(=O)N1CCN(S(=O)(=O)c2cc(OCC)ccc2OCC)CC1,inconclusive: -30.9% [at 0.0737 µM],,
COc1cc(CNc2ccc3[nH]c(=O)[nH]c3c2)ccc1OCc1ccc(Cl)cc1,,"inconclusive: 29.1 µM [falling, single point]",

# Single records, from the list above:
# CC(C)C[C@@H](CO)N1CCN(Cc2ccc(Br)cc2)CCC1=O in the list: lipid storage change, negative = inhibition: inconclusive: -21.6%
# CSCCC(NS(=O)(=O)c1ccccc1F)C(=O)N1CCCCCCC1 (stereo unspecified) in the list: Potency: inconclusive: 11.6 µM [activator, partial curve, poor fit]
# COC(=O)c1ccc(CS(=O)(=O)c2ccc(F)cc2)o1 in the list: lipid storage change, negative = inhibition: inconclusive: 9.97%
